The text below walks through data of publication PMC11802453.

Protein sequences, listed by entry. Tags and fused reporters are not part of them.
UniProt P42859: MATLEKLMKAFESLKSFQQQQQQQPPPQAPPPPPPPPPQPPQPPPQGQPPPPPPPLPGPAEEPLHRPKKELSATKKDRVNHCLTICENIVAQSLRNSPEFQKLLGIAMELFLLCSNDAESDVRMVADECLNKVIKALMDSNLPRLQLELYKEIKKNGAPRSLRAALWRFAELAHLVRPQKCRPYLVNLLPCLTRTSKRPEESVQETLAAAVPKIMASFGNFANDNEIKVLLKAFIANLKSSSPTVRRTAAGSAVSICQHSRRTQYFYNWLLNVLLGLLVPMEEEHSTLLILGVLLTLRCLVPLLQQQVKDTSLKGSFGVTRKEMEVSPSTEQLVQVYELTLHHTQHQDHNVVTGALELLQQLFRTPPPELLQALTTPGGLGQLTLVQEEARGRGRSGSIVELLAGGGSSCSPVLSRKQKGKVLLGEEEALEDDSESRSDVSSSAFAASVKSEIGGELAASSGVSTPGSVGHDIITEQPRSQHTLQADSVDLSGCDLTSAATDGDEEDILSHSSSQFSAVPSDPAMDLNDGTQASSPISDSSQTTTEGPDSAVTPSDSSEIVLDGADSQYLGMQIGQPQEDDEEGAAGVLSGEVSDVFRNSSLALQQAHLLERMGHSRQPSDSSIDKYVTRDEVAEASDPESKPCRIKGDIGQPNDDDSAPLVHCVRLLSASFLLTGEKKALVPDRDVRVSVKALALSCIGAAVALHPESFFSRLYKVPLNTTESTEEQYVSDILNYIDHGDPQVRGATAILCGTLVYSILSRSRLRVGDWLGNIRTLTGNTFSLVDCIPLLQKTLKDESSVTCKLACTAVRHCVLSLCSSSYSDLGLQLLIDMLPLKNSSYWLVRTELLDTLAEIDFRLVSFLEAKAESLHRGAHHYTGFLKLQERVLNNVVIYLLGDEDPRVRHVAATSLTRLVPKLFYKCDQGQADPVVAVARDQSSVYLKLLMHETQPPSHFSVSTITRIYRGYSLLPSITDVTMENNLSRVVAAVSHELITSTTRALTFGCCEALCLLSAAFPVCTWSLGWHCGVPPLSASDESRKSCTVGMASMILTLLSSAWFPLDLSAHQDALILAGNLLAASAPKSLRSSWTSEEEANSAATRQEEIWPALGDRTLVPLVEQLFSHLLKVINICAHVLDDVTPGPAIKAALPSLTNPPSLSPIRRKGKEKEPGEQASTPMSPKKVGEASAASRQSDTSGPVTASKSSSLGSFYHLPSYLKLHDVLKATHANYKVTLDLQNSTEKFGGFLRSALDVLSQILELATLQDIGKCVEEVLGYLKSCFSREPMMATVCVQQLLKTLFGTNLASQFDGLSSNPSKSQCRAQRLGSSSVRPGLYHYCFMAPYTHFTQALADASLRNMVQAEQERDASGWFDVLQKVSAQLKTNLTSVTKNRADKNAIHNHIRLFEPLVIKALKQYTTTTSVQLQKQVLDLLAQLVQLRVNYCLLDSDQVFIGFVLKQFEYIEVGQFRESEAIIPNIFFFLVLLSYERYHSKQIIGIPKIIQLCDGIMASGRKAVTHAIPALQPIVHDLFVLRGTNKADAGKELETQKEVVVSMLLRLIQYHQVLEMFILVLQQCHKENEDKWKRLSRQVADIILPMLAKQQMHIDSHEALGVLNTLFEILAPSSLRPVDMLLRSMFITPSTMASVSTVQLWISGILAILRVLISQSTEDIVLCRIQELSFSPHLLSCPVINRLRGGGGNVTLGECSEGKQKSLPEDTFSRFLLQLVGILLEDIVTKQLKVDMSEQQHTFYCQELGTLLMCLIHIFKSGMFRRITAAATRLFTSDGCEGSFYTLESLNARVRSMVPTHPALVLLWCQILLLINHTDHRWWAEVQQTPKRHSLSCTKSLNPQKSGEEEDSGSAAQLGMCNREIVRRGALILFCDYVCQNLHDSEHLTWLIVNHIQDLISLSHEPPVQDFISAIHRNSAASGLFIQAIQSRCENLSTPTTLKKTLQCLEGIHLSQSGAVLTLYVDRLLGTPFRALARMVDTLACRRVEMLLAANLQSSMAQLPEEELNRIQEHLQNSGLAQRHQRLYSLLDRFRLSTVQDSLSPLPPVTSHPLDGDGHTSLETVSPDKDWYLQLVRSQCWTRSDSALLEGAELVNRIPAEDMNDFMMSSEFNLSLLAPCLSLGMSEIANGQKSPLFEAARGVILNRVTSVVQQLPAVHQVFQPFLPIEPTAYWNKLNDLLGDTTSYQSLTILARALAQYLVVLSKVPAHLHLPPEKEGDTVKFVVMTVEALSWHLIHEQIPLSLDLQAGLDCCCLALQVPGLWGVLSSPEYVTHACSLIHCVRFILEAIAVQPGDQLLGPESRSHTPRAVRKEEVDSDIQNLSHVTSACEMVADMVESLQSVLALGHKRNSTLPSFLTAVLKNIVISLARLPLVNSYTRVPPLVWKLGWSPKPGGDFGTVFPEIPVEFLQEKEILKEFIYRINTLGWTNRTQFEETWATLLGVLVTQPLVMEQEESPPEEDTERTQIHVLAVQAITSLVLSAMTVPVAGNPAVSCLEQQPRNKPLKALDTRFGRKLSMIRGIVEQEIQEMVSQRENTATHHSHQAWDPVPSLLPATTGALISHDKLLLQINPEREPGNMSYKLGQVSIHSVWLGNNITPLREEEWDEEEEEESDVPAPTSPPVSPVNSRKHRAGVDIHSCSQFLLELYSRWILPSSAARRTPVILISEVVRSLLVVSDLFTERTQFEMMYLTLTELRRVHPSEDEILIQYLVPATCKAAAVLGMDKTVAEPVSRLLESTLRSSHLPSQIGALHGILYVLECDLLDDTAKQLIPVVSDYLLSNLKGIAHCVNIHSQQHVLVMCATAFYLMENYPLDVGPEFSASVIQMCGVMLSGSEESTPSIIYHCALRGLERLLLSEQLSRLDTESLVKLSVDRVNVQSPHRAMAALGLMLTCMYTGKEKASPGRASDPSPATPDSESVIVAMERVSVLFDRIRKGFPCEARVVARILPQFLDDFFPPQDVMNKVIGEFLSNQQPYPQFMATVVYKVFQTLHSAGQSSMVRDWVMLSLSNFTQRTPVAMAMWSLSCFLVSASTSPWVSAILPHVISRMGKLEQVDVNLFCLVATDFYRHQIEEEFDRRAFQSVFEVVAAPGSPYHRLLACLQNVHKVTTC
UniProt Q921F2: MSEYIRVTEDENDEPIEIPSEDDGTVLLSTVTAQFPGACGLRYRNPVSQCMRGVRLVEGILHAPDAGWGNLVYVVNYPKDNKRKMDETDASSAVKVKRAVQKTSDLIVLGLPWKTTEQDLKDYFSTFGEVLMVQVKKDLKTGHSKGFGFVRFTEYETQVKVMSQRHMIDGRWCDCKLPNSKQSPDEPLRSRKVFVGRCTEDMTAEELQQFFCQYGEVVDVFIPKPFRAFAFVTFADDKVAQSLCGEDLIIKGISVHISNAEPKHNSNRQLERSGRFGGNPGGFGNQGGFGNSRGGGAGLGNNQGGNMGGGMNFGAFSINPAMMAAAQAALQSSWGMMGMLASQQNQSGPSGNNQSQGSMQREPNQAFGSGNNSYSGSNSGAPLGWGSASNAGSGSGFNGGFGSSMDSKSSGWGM

Results are given in words; binding and its absence hold for the method and conditions named. Binding seen in cells or lysates may run through a third protein. Some binding calls cover weakened binding; strength is not graded here.

The target of this assay is mouse full-length HTT (huntingtin) (mouse) (UniProt P42859). Description: co-IP; mouse brain lysate, 1 mg of protein per IP, primary antibody 1:1,000, Dynabeads sheep anti-rabbit or goat anti-mouse, 1 h at room temperature; 3x high-salt wash (1 M NaCl, 1% NP-40, 0.1% SDS, 0.5% sodium deoxycholate), 2x low-salt wash; immunoblot. For orientation: In western blotting, separated proteins are transferred to a membrane and probed.

For the substance “TDP-43 (TAR DNA-binding protein, TARDBP) (from UniProt Q921F2 1-414)”, the binding result is on record as “binds”.
